Reference: the supplement of paper PMC10338343
± gives the standard deviation. This is a selection; strong and weak results do not stand in their true shares. The uncertainty is large for many entries.

The sequences below were run on MIWI (PIWIL1) piRISC loaded with piRNA #1 (30 nt) (assay: pre-steady-state target cleavage rate (min^-1); MIWI and MILI are mouse PIWI proteins and EfPiwi is from a freshwater sponge; tags in brackets are library labels; higher = faster piRNA-guided slicing of the target). Settings: guide: piRNA #1 5'p-UGAGGUAGUAGGUUGUAUAGUAUCCAGAGG; auxiliary factor: 500 nM mouse GTSF1.
Procedure, shortened: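 Cleave-'n-Seq: 1 nM active affinity-purified piRISC with one synthetic guide and 0.1 nM transcribed, DNA-blocked target RNA library were mixed, with or without 500 nM GTSF1 partner protein, in HEPES–potassium acetate buffer at 33 °C for 0–8 or 0–960 min. Uncleaved targets were sequenced and normalised to depth and to weakly complementary targets, three trials were pooled, and k3 was capped at 0.0001 min^-1. The pre-steady-state cleavage rate was fitted […].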

| Sequence | pre-steady-state target cleavage rate |
| --- | --- |
| CCUCCUGGAUACUAUACAACCUACUACCUCA | 2.25 ± 0.13 |
| GGACCUGGAUACUAUACAACCUACUACCUCA | 1.96 ± 0.14 |
| GGAGACCUAUGAUAACAACCUACUCCUCA | 0.000142 ± 0.012 |
| GGAGACCUAUGAAUACUUCCUACUACCUCA | 0.000398 ± 0.0059 |
| GGACUGGAUACUAUACAACCUGACUACCUCA | 0.00196 ± 0.0049 |
| GGAGACCUAUGAUAUGUACCUUCUACGUCA | 0.000149 ± 0.021 |
| GGAGACCUAUGAUUACGACCUACUACCUCA | 0.000644 ± 0.0039 |
| CCUCUGGAUACUAUACUACCUACUACCACA | 1.68 ± 0.12 |
| GCUUGGAUACUAUACAACCUACUACCUCA | 1.87 ± 0.12 |
| GCCUGGAUACUAUACAACCUACUACCUCA | 1.87 ± 0.11 |
| GGACUGGAUACUAUACAAACCUACUACCUCA | 0.0025 ± 0.0038 |
| CCUCUGCGAUACUAUACAACCUACUACCUCA | 2.19 ± 0.12 |
| GGAGACCUAUGAUUGACAACCUACUACCUCA | 0.00382 ± 0.0039 |
| GCUCUGGAUACUAUACAACCUACUACCUAA | 1.83 ± 0.12 |
| GGAGUCGGAUACUAUACAACCUACUACCUCA | 1.45 ± 0.091 |
| GGACUGGAUACUAUACAACCUAUACCUCA | 0.00112 ± 0.0077 |
| GGAGACCUAACUAUACAACCGUACUACCUCA | 0.00078 ± 0.011 |
| GGAGUGGUUACUAUACAACGUACUACCUCA | 0.386 ± 0.027 |
| GGAGACCUAUGAUAUGUAGCUACUACCACA | 0.000663 ± 0.0084 |
| GCUCUGGAUAGAUUACAACCUACUACCUCA | 0.735 ± 0.048 |
| GGUCUGGCAUACUAUACAACCUACUACCUCA | 1.86 ± 0.12 |
| GGAGACCUAUGAAUACAACCUACCACCUCA | 0.00254 ± 0.0031 |
| GGACUCGAUUCUAUACAACCUACUACCUCA | 1.61 ± 0.14 |
| GGAGACCUAUGUAUACAACCUACUUCCACA | 0.000724 ± 0.0041 |

Not a retest: an excerpt of the list.

| Sequence | pre-steady-state target cleavage rate |
| --- | --- |
| GGACUGGAUACUAUACAAACCUACUACCUCA | 0.0025 ± 0.0038 |
| CCUCUGCGAUACUAUACAACCUACUACCUCA | 2.19 ± 0.12 |
| GGAGACCUAUGAUUGACAACCUACUACCUCA | 0.00382 ± 0.0039 |
| GCUCUGGAUACUAUACAACCUACUACCUAA | 1.83 ± 0.12 |
| GGAGUCGGAUACUAUACAACCUACUACCUCA | 1.45 ± 0.091 |
| GGACUGGAUACUAUACAACCUAUACCUCA | 0.00112 ± 0.0077 |
